According to PubChem BioAssay AID248 (DTP/NCI, 2004):
The list does not hold the whole screen: it gathers tests that were run many times, whatever their T/C, doses with no T/C, and many T/C values between a quarter and a half above the control. Other doses and runs of a compound stand elsewhere. T/C gives the treated animals as a percentage of the vehicle group. Some doses have a count of surviving animals in place of a T/C: the source files T/C as zero there, which appears to mark a toxic dose or a test without result, not a measured value. Some doses without a T/C left all or most animals alive at the check, yet need not have been tolerated: the source hardly ever lists a survival T/C far under the control, and the zero likely stands for such cases as well. Counts of survivors are from the toxicity check (mostly the fifth day) where no day follows; animals may have died later. Schedule codes are those of the source, taken here to give the interval after Q, in days (D) or hours (H), and the number of doses after X. Some schedule codes hold Z or #, which are not explained here. Where survival is the endpoint, this PubChem deposit counts one and a half times the control or more as active, and values a quarter to a half above the control carry no call in these data; other NCI protocols may use other cut-offs. Some entries hold several experiments; the values are given in rising order. Some T/C values are followed by the survivors on the day toxicity was checked, most often the fifth; where none is given, no animal had died by that day.

System: L1210 leukemia ip in BDF1 mice, survival T/C
Assay: NCI In Vivo Anticancer Drug Screen. Data for tumor model L1210 Leukemia (intraperitoneal) in B6D2F1 (BDF1) mice
Conditions: T/C endpoint: mean survival time, higher T/C = longer survival
[1] = dose: 80.0 mg/kg/injection, schedule: Q01DX001 (ip), vehicle: carboxymethylcellulose (CMC)
[2] = dose: 100.0 mg/kg/injection, schedule: Q01DX001 (ip), vehicle: carboxymethylcellulose (CMC)
[3] = dose: 200.0 mg/kg/injection, schedule: Q01DX001 (ip), vehicle: carboxymethylcellulose (CMC)
[4] = dose: 400.0 mg/kg/injection, schedule: Q01DX001 (ip), vehicle: carboxymethylcellulose (CMC)
[5] = dose: 400.0 mg/kg/injection, schedule: Q01DX001 (ip), vehicle: saline
[6] = dose: 100.0 mg/kg/injection, schedule: Q01DX009 (ip), vehicle: Klucel (hydroxypropylcellulose) (HPC)
[7] = dose: 200.0 mg/kg/injection, schedule: Q01DX009 (ip), vehicle: Klucel (hydroxypropylcellulose) (HPC)
[8] = dose: 400.0 mg/kg/injection, schedule: Q04DX003 (ip), vehicle: Klucel (hydroxypropylcellulose) (HPC)

C=C(C(=O)OC1CC2CCC(C1)N2C)c1ccccc1 (stereo not drawn)
survivor count (dose: 10.0 mg/kg/injection, schedule: Q01DX Z (ip), vehicle: saline): 2 of 6
survivor count (dose: 40.0 mg/kg/injection, schedule: Q01DX001 (ip), vehicle: carboxymethylcellulose (CMC)): 3 of 6
survivor count [1]: 0 of 6
survivor count [2]: 0 of 4
survivor count [3]: 0 of 4
survivor count [4]: 0 of 4

CCOC(=O)/C(=C/c1ccc(OC)c(OC)c1)P(=O)(OCC)OCC
survivor count (dose: 200.0 mg/kg/injection, schedule: Q01DX001 (ip), vehicle: saline): 0 of 4
survivor count [5]: 0 of 4

CC1=C(N2CCCC2)CCCC1=O
survivor count (dose: 400.0 mg/kg/injection, schedule: Q04DX002 (ip), vehicle: saline): 0 of 3

O=S(=O)(N/N=C/c1cc(Cl)ccc1O)c1cc(Cl)c(Cl)cc1Cl
survivor count (dose: 40.0 mg/kg/injection, schedule: Q01DX Z (ip), vehicle: other): 6 of 8
survivor count (dose: 80.0 mg/kg/injection, schedule: Q01DX Z (ip), vehicle: other): 0 of 8

c1ccc(CCCSc2ccccc2)cc1
survivor count (dose: 400.0 mg/kg/injection, schedule: Q01DX009 (ip), vehicle: saline with Tween-80): 3 of 6

CCOc1cccc(OC(C)=O)c1
survivor count (dose: 300.0 mg/kg/injection, schedule: Q01DX001 (ip), vehicle: carboxymethylcellulose (CMC)): 3 of 6

COc1ccc(CCNC(=O)Cc2ccccc2)cc1OC
survivor count (dose: 400.0 mg/kg/injection, schedule: Q04DX003 (ip), vehicle: saline with Tween-80): 5 of 6

CCCc1c2cc(OC)c(OC)cc2cc2c3cc(OC)c(OC)cc3cc[n+]12 (tested in a mixture with another compound)
survivor count [6]: 4 of 6
survivor count [7]: 0 of 6
survivor count [8]: 3 of 6

S=C=NCC(Br)CBr (stereo not drawn)
survivor count (dose: 50.0 mg/kg/injection, schedule: Q04DX003 (ip), vehicle: Klucel (hydroxypropylcellulose) (HPC)): 3 of 6
survivor count (dose: 100.0 mg/kg/injection, schedule: Q04DX003 (ip), vehicle: Klucel (hydroxypropylcellulose) (HPC)): 5 of 6
survivor count (dose: 200.0 mg/kg/injection, schedule: Q04DX003 (ip), vehicle: Klucel (hydroxypropylcellulose) (HPC)): 6 of 6
survivor count [8]: 5 of 6

ClCc1c(Cl)c(Cl)c(Cl)c(CCl)c1Cl
survivor count (dose: 400.0 mg/kg/injection, schedule: Q01DX009 (ip), vehicle: Klucel (hydroxypropylcellulose) (HPC)): 1 of 6

Clc1ccccc1OCCNC1CC1
survivor count (dose: 200.0 mg/kg/injection, schedule: Q04DX003 (ip), vehicle: saline): 2 of 4
survivor count (dose: 400.0 mg/kg/injection, schedule: Q04DX003 (ip), vehicle: saline): 1 of 4

COc1ccc(NCC(O)CN2CCCC2)cc1 (stereo not drawn)
survivor count [5]: 3 of 6

CC(=O)c1cc(CN(CCCl)CCCl)c(O)c(CN(CCCl)CCCl)c1O
T/C (dose: 3.75 mg/kg/injection, schedule: Q01DX009 (ip), vehicle: carboxymethylcellulose (CMC)): 125 % of control
T/C (dose: 5.5 mg/kg/injection, schedule: Q01DX009 (ip), vehicle: Klucel (hydroxypropylcellulose) (HPC)): 126 % of control
T/C (dose: 7.5 mg/kg/injection, schedule: Q01DX009 (ip), vehicle: carboxymethylcellulose (CMC)): 125 % of control
T/C (dose: 8.3 mg/kg/injection, schedule: Q01DX009 (ip), vehicle: Klucel (hydroxypropylcellulose) (HPC)): 130 % of control
T/C (dose: 12.5 mg/kg/injection, schedule: Q01DX009 (ip), vehicle: Klucel (hydroxypropylcellulose) (HPC)): 118, 120, 129, 130 % of control
survivor count (dose: 25.0 mg/kg/injection, schedule: Q01DX009 (ip), vehicle: Klucel (hydroxypropylcellulose) (HPC)): 4 of 6
T/C (dose: 35.0 mg/kg/injection, schedule: Q01DX001 (ip), vehicle: carboxymethylcellulose (CMC)): 141 % of control
survivor count (dose: 50.0 mg/kg/injection, schedule: Q01DX009 (ip), vehicle: Klucel (hydroxypropylcellulose) (HPC)): 0 of 6
T/C (dose: 53.0 mg/kg/injection, schedule: Q01DX001 (ip), vehicle: carboxymethylcellulose (CMC)): 137 % of control
survivor count (dose: 60.0 mg/kg/injection, schedule: Q01DX009 (ip), vehicle: carboxymethylcellulose (CMC)): 2 of 6
T/C [1]: 134 % of control
T/C [2]: 132 % of control
survivor count [6]: 0 of 6
T/C (dose: 120.0 mg/kg/injection, schedule: Q01DX001 (ip), vehicle: carboxymethylcellulose (CMC)): 149 % of control
survivor count (dose: 120.0 mg/kg/injection, schedule: Q01DX009 (ip), vehicle: carboxymethylcellulose (CMC)): 0 of 6
T/C (dose: 177.0 mg/kg/injection, schedule: Q01DX001 (ip), vehicle: carboxymethylcellulose (CMC)): 135 % of control [5 of 6 alive]
survivor count (dose: 180.0 mg/kg/injection, schedule: Q01DX001 (ip), vehicle: carboxymethylcellulose (CMC)): 2 of 6
T/C [3]: 140 % of control
survivor count [7]: 0 of 6
survivor count (dose: 266.0 mg/kg/injection, schedule: Q01DX001 (ip), vehicle: carboxymethylcellulose (CMC)): 3 of 6
T/C [4]: 145 % of control [4 of 6 alive]
survivor count [4]: 0 of 6
survivor count (dose: 600.0 mg/kg/injection, schedule: Q01DX001 (ip), vehicle: carboxymethylcellulose (CMC)): 0 of 6
